Laboratory results taken from PubChem BioAssay AID328 (DTP/NCI, 2004).
The list does not hold the whole screen: it is rich in T/C values a quarter to a half above the control, in often repeated tests (any T/C) and in doses without a T/C. Other doses and runs of a compound stand elsewhere. T/C is the treated group as % of the vehicle group. Some entries give survivors of the animals treated and no T/C: the source holds a T/C of zero for them, seemingly a mark for toxic or unscored doses. Some doses without a T/C left all or most animals alive at the check, yet need not have been tolerated: the source hardly ever lists a survival T/C far under the control, and the zero likely stands for such cases as well. Counts of survivors are from the toxicity check (mostly the fifth day) where no day follows; animals may have died later. Schedules are NCI's codes, read here as Q, the interval in days (D) or hours (H), X, the number of doses. Signs of the kind (2×) say how often a value occurs here. For survival time, the PubChem record calls one and a half times the control and up active, and a quarter to a half above the control has no call in these data; cut-offs in other NCI protocols can differ. Some T/C values are followed by the survivors on the day toxicity was checked, most often the fifth; where none is given, no animal had died by that day.

Tested on: BDF1 mice, P388 leukemia ip, median survival T/C
Experiment: NCI In Vivo Anticancer Drug Screen. Data for tumor model P388 Leukemia (intraperitoneal) in B6D2F1 (BDF1) mice
Conditions: T/C endpoint: median survival time, higher T/C = longer survival
Summary of the method: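 Read-out is survival of treated animals expressed relative to the vehicle group, as a T/C ratio.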

[1] = dose: 400.0 mg/kg/injection, schedule: Q04DX003 (ip), vehicle: saline with Tween-80
[2] = dose: 50.0 mg/kg/injection, schedule: Q01DX009 (ip), vehicle: Klucel (hydroxypropylcellulose) (HPC)
[3] = dose: 200.0 mg/kg/injection, schedule: Q01DX009 (ip), vehicle: Klucel (hydroxypropylcellulose) (HPC)
[4] = dose: 400.0 mg/kg/injection, schedule: Q04DX003 (ip), vehicle: Klucel (hydroxypropylcellulose) (HPC)
[5] = dose: 200.0 mg/kg/injection, schedule: Q01DX009 (ip), vehicle: saline with Tween-80
[6] = dose: 50.0 mg/kg/injection, schedule: Q04DX003 (ip), vehicle: saline with Tween-80
[7] = dose: 50.0 mg/kg/injection, schedule: Q04DX003 (ip), vehicle: saline
[8] = dose: 100.0 mg/kg/injection, schedule: Q01DX009 (ip), vehicle: Klucel (hydroxypropylcellulose) (HPC)
[9] = dose: 40.0 mg/kg/injection, schedule: Q01DX009 (ip), vehicle: Klucel (hydroxypropylcellulose) (HPC)

SMILES: C=C1CC(C2CCC(C)(C)C2)OC1=O (stereo not drawn)
- survivor count (dose: 100.0 mg/kg/injection, schedule: Q04DX002 (ip), vehicle: saline with Tween-80): 6 of 6

SMILES: CS(=O)(=O)Nc1ccc(Nc2c3ccccc3nc3cc(N)ccc23)cc1
- survivor count (dose: 5.0 mg/kg/injection, schedule: Q01DX009 (ip), vehicle: saline): 6 of 6
- T/C (dose: 6.25 mg/kg/injection, schedule: Q04DX003 (ip), vehicle: saline with Tween-80): 136 % of control
- survivor count (dose: 10.0 mg/kg/injection, schedule: Q01DX009 (ip), vehicle: saline): 5 of 6
- survivor count (dose: 12.5 mg/kg/injection, schedule: Q04DX003 (ip), vehicle: saline with Tween-80): 6 of 6
- survivor count (dose: 25.0 mg/kg/injection, schedule: Q04DX003 (ip), vehicle: saline with Tween-80): 3 of 6

SMILES: Cc1c2cnccc2c(C)c2c1c1ccccc1n2CCNCCO
- T/C (dose: 0.64 mg/kg/injection, schedule: Q04DX003 (ip), vehicle: saline): 136 % of control
- T/C (dose: 1.0 mg/kg/injection, schedule: Q04DX003 (ip), vehicle: saline): 136 % of control
- T/C (dose: 44.0 mg/kg/injection, schedule: Q04DX003 (ip), vehicle: saline with Tween-80): 127 % of control
- T/C (dose: 66.0 mg/kg/injection, schedule: Q04DX003 (ip), vehicle: saline with Tween-80): 136 % of control

SMILES: CCNC(C)(C)C(SS(=O)(=O)O)c1ccc(Cl)s1 (stereo not drawn)
- survivor count [1]: 4 of 6

SMILES: O=C(/C=C/c1ccc(Cl)cc1)NCC(O)CO (stereo not drawn)
- survivor count (dose: 800.0 mg/kg/injection, schedule: Q01DX009 (ip), vehicle: water): 4 of 6

SMILES: OCC#CC#CCO
- survivor count (dose: 200.0 mg/kg/injection, schedule: Q01DX001 (ip), vehicle: saline): 1 of 6
- survivor count (dose: 400.0 mg/kg/injection, schedule: Q01DX001 (ip), vehicle: saline): 0 of 6

SMILES: CC(=O)Nc1nnc(/C=C/c2ccc([N+](=O)[O-])o2)s1
- survivor count (dose: 100.0 mg/kg/injection, schedule: Q04DX003 (ip), vehicle: Klucel (hydroxypropylcellulose) (HPC)): 6 of 6
- survivor count (dose: 200.0 mg/kg/injection, schedule: Q04DX003 (ip), vehicle: Klucel (hydroxypropylcellulose) (HPC)): 5 of 6

SMILES: CCN(C(=O)C(F)(F)F)C(C)(C)C(SSSC(c1ccc(Cl)cc1)C(C)(C)N(CC)C(=O)C(F)(F)F)c1ccc(Cl)cc1 (stereo not drawn)
- T/C [2]: 130 % of control
- survivor count [3]: 1 of 6
- survivor count [4]: 1 of 6

SMILES: OCC1OC(n2cnc3cc(Cl)c(Cl)cc32)C(O)C1O (stereo not drawn)
- T/C (dose: 50.0 mg/kg/injection, schedule: Q01DX009 (ip), vehicle: saline with Tween-80): 130 % of control
- T/C (dose: 100.0 mg/kg/injection, schedule: Q01DX009 (ip), vehicle: saline with Tween-80): 140 % of control [5 of 6 alive]
- survivor count [5]: 5 of 6
- survivor count (dose: 400.0 mg/kg/injection, schedule: Q01DX009 (ip), vehicle: saline with Tween-80): 0 of 6

SMILES: CCCCOC(=S)Nc1ccccc1
- T/C (dose: 200.0 mg/kg/injection, schedule: Q01DX009 (ip), vehicle: other): 125 % of control

SMILES: Cc1ccc2c(ccc3c[n+]4ccccc4c(C)c32)c1
- T/C (dose: 22.0 mg/kg/injection, schedule: Q04DX003 (ip), vehicle: saline with Tween-80): 136 % of control
- T/C [6]: 136 % of control
- survivor count [6]: 6 of 6
- survivor count (dose: 75.0 mg/kg/injection, schedule: Q04DX003 (ip), vehicle: saline with Tween-80): 5 of 6

SMILES: CC(O)(c1ccc(Br)cc1)C(c1ccccc1)c1ccccn1 (stereo not drawn)
- survivor count [7]: 6 of 6

SMILES: O=S(=O)(O)SCCNCCCCCC1CCCCC1
- survivor count (dose: 12.0 mg/kg/injection, schedule: Q01DX009 (ip), vehicle: Klucel (hydroxypropylcellulose) (HPC)): 0 of 6
- T/C (dose: 12.0 mg/kg/injection, schedule: Q01DX009 (ip), vehicle: saline): 125 % of control [4 of 6 alive]
- survivor count (dose: 24.0 mg/kg/injection, schedule: Q01DX009 (ip), vehicle: Klucel (hydroxypropylcellulose) (HPC)): 0 of 6

SMILES: O=S1(=O)CC(Cl)C(Cl)C1 (stereo not drawn)
- survivor count (dose: 6.25 mg/kg/injection, schedule: Q01DX009 (ip), vehicle: saline): 6 of 6
- survivor count (dose: 12.5 mg/kg/injection, schedule: Q01DX009 (ip), vehicle: saline): 6 of 6
- survivor count (dose: 40.0 mg/kg/injection, schedule: Q04DX003 (ip), vehicle: saline): 1 of 6
- survivor count (dose: 60.0 mg/kg/injection, schedule: Q04DX003 (ip), vehicle: saline): 2 of 6

SMILES: C[C@]1(O)CC[C@H]2[C@@H]3CCC4=CC(=O)CC[C@]4(C)[C@@]3(F)C(=O)C[C@@]21C
- survivor count [8]: 5 of 6
- survivor count [3]: 6 of 6
- survivor count (dose: 400.0 mg/kg/injection, schedule: Q01DX009 (ip), vehicle: Klucel (hydroxypropylcellulose) (HPC)): 5 of 6

SMILES: CCc1ccc(C(=O)N/N=C(\C)[C@]2(O)Cc3c(O)c4c(c(O)c3[C@@H](OC3CC(N)C(O)C(C)O3)C2)C(=O)c2c(OC)cccc2C4=O)cc1 (stereo partly drawn)
- T/C (dose: 1.56 mg/kg/injection, schedule: Q01DX009 (ip), vehicle: water): 131 % of control
- T/C (dose: 3.12 mg/kg/injection, schedule: Q01DX009 (ip), vehicle: water): 133 % of control [5 of 6 alive]
- survivor count (dose: 25.0 mg/kg/injection, schedule: Q01DX009 (ip), vehicle: water): 6 of 6 (2×)

SMILES: Nc1nc2c(ncn2C2OC(CO)C(O)C2O)c(=O)[nH]1 (stereo not drawn)
- T/C [6]: 130 % of control
- survivor count (dose: 200.0 mg/kg/injection, schedule: Q04DX003 (ip), vehicle: saline with Tween-80): 2 of 6
- survivor count [1]: 0 of 6

SMILES: O=C(O)C(CSC(c1ccccc1)(c1ccccc1)c1ccccc1)N=Cc1cccs1 (stereo not drawn)
- T/C (dose: 4.8 mg/kg/injection, schedule: Q01DX009 (ip), vehicle: saline): 145 % of control
- survivor count (dose: 150.0 mg/kg/injection, schedule: Q01DX009 (ip), vehicle: saline): 4 of 6

SMILES: CCCCCCCCCCCCCCC(F)C(=O)OC (stereo not drawn)
- survivor count (dose: 200.0 mg/kg/injection, schedule: Q04DX003 (sc), vehicle: olive oil, sesame oil, peanut oil): 5 of 6

SMILES: C=C(C)c1ccc(C)c(C)c1
- T/C [5]: 134 % of control

SMILES: c1ccc2c(c1)OCCOCCOc1ccccc1OCCOCCO2
- survivor count (dose: 37.5 mg/kg/injection, schedule: Q01DX009 (ip), vehicle: saline with Tween-80): 6 of 6
- survivor count (dose: 75.0 mg/kg/injection, schedule: Q01DX009 (ip), vehicle: saline with Tween-80): 5 of 6

SMILES: Cc1ccccc1-n1c(C)nc2ccccc2c1=O
- survivor count [2]: 6 of 6
- survivor count [8]: 6 of 6
- survivor count [3]: 1 of 6
- survivor count [4]: 1 of 6

SMILES: BrCc1cc2ccccc2cc1CBr
- T/C [7]: 125 % of control
- T/C (dose: 100.0 mg/kg/injection, schedule: Q04DX003 (ip), vehicle: saline): 129 % of control

SMILES: CC1(C)OC2C(CO)OC(n3cnc4c(N)ncnc43)C2O1 (stereo not drawn)
- survivor count (dose: 150.0 mg/kg/injection, schedule: Q04DX003 (ip), vehicle: Klucel (hydroxypropylcellulose) (HPC)): 4 of 6

SMILES: CCSc1nc(Cl)cc(Sc2nc(N)nc3nc[nH]c23)n1
- T/C (dose: 26.0 mg/kg/injection, schedule: Q01DX009 (ip), vehicle: Klucel (hydroxypropylcellulose) (HPC)): 135 % of control
- T/C [9]: 130 % of control
- T/C (dose: 60.0 mg/kg/injection, schedule: Q01DX009 (ip), vehicle: Klucel (hydroxypropylcellulose) (HPC)): 130 % of control
- T/C (dose: 88.0 mg/kg/injection, schedule: Q01DX009 (ip), vehicle: Klucel (hydroxypropylcellulose) (HPC)): 145 % of control
- T/C (dose: 88.0 mg/kg/injection, schedule: Q01DX010 (ip), vehicle: saline): 125 % of control
- T/C (dose: 132.0 mg/kg/injection, schedule: Q01DX009 (ip), vehicle: Klucel (hydroxypropylcellulose) (HPC)): 140 % of control
- survivor count (dose: 300.0 mg/kg/injection, schedule: Q01DX010 (ip), vehicle: saline): 6 of 6

SMILES: c1ccc2c(NCCCCCCCCNc3c4ccccc4nc4ccccc34)c3ccccc3nc2c1
- T/C (dose: 5.0 mg/kg/injection, schedule: Q01DX009 (ip), vehicle: Klucel (hydroxypropylcellulose) (HPC)): 129 % of control
- T/C (dose: 10.0 mg/kg/injection, schedule: Q01DX009 (ip), vehicle: Klucel (hydroxypropylcellulose) (HPC)): 137 % of control
- T/C [9]: 149 % of control
